{
  "sequences": {"note": "Protein sequences, listed by entry. Tags and fused reporters are not part of them. Lines headed by an entry give the natural chain unless they say otherwise; changes in a name come on top.", "UniProt P69720": "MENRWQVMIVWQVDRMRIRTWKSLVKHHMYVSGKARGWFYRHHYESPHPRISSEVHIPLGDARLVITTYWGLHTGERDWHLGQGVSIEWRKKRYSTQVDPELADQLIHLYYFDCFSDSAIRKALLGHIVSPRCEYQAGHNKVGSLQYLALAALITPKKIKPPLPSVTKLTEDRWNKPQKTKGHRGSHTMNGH", "UniProt P69721": "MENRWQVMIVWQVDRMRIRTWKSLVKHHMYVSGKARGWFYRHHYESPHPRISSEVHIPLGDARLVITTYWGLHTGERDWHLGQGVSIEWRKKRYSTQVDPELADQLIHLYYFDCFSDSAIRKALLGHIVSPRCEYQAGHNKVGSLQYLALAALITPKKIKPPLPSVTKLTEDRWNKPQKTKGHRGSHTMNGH", "UniProt P69722": "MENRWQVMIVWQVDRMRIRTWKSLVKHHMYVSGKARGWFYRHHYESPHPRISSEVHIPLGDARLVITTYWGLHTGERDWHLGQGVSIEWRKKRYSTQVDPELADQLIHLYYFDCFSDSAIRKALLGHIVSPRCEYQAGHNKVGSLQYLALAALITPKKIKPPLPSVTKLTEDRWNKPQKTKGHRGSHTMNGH", "UniProt P69723": "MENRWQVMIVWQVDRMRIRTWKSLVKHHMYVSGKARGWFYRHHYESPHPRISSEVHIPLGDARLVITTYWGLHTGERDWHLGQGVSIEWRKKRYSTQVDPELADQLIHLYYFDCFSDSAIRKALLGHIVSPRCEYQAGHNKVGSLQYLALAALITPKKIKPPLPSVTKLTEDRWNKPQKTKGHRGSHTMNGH", "UniProt Q9HC16": "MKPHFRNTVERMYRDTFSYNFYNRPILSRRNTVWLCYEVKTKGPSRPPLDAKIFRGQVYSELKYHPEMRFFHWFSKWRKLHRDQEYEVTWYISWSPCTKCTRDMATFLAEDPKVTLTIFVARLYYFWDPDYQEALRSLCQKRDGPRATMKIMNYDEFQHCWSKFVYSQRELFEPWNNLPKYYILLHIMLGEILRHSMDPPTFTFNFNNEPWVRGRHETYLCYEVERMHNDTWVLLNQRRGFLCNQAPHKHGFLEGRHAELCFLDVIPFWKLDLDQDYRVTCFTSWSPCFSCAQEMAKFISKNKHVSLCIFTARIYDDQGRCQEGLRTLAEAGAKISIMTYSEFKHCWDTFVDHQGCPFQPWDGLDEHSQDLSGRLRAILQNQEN"},
  "source": "PubChem BioAssay AID1117319",
  "about": "(Southern Research Institute, 2015)",
  "note": "The whole screen tested about 260,000 compounds, of which about 1,500 (0.58%) were called active. This list was built around the results that the source calls inconclusive (neither active nor inactive); the mix of calls is not that of the screen.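 Rule for the calls: active = inhibition above a set limit at one or more doses, reproduced on every date tested; inconclusive = results disagree between test dates, or hit never tested in dose response; inactive = the rest.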",
  "data": [
    {"molecular_target": "Virion infectivity factor (Human immunodeficiency virus type 1 group M subtype B (isolate BH10)) + Virion infectivity factor (Human immunodeficiency virus type 1 group M subtype B (isolate BRU/LAI)) + Virion infectivity factor (Human immunodeficiency virus type 1 group M subtype B (isolate PCV12)) + Virion infectivity factor (Human immunodeficiency virus type 1 group M subtype B (isolate HXB2)) + DNA dC->dU-editing enzyme APOBEC-3G (Homo sapiens) (UniProt P69720+P69721+P69722+P69723+Q9HC16)", "assay": "inhibitors of Vif binding to APOBEC3G peptide, primary screen, biochemical, TR-FRET, GST-Vif 1-94, biotin-A3G peptide, dose response retest (AID 1117319);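 note: Vif residues 1-94 fused to GST binding biotinylated APOBEC3G peptide 110-148; 0% = full assay without inhibitor and 100% = GST in place of GST-Vif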", "conditions": "hits give high values", "values": [
      {"smiles": "Nc1nc(-c2ccco2)cs1", "inhibition": "inactive: -0.78%"},
      {"smiles": "COc1cc(O)c(C(CCN2CCCC(C)C2)c2ccc(N(C)C)cc2)c(OC)c1", "note": "(configuration not stated)", "inhibition": "inconclusive: 33.2%"},
      {"smiles": "CN1CCc2c(C#N)c(N3CCOCC3)nc(NCC3CCCO3)c2C1", "note": "(configuration not stated)", "inhibition": "inconclusive: 42%"},
      {"smiles": "C=CCn1c(SCC2=C(C(=O)OCC)C(C)NC(=O)N2)nnc1C1CCCCC1", "note": "(configuration not stated)", "inhibition": "inconclusive: 55.7%"},
      {"smiles": "COc1ccccc1CNC(=O)C/C(C)=N/NC(=O)Cc1ccccc1", "inhibition": "inconclusive: 43.1%"},
      {"smiles": "O=C(/C=C/c1ccco1)N/C(=C\\c1ccco1)C(=O)NCCc1nc2ccccc2[nH]1", "inhibition": "inconclusive: 44.1%"},
      {"smiles": "O=C(COC(=O)CCCc1c[nH]c2ccccc12)Nc1ccc2c(c1)OCO2", "inhibition": "inconclusive: 53.8%"},
      {"smiles": "O=C(O)C1CC=CCC1C(=O)Nc1ccc(F)c(F)c1", "note": "(configuration not stated)", "inhibition": "inconclusive: 41.6%"},
      {"smiles": "O=C(N/N=C/c1ccc([N+](=O)[O-])s1)C(O)c1ccccc1", "note": "(configuration not stated)", "inhibition": "inconclusive: 35.2%"},
      {"smiles": "O=C1CN(/N=C/c2ccc([N+](=O)[O-])o2)C(=O)N1", "inhibition": "inactive: 6.04%"},
      {"smiles": "COc1ccc(Cn2c(C)c(C)c(C#N)c2NC(=O)Nc2ccccc2)cc1", "inhibition": "inconclusive: 46.7%"},
      {"smiles": "Cc1ccc(CNC(=O)c2oc3ccc(S(=O)(=O)N4CCOCC4)cc3c2C)cc1", "inhibition": "inconclusive: 40.9%"},
      {"smiles": "COc1ccc(-n2c(=O)cc(N3CC(C)OC(C)C3)[nH]c2=O)cc1", "note": "(configuration not stated)", "inhibition": "inconclusive: 58.3%"},
      {"smiles": "O=C1c2ccccc2C(=O)N1CN(C(=O)COc1ccccc1)c1ccc(F)cc1", "inhibition": "inconclusive: 39%"},
      {"smiles": "Cc1cc(C(=O)OCC(=O)N2CC(=O)Nc3ccccc32)no1", "inhibition": "inconclusive: 53%"},
      {"smiles": "O=C(CC1Nc2cccc3cccc(c23)NC1=O)Nc1ccccc1", "note": "(configuration not stated)", "inhibition": "inconclusive: 55%"},
      {"smiles": "COc1cccc(C(=O)N2CCN(C(=O)c3cccc4ccccc34)CC2)c1OC", "inhibition": "inactive: 1.56%"},
      {"smiles": "O=C(Cc1ccccc1)NC1CCN(C(=O)c2ccc([N+](=O)[O-])cc2)CC1", "inhibition": "inactive: -1.3%"},
      {"smiles": "CCCCN(CCCC)c1cc(C)nc(-c2ccccc2O)n1", "inhibition": "inconclusive: 46.7%"},
      {"smiles": "CCN(CC(=O)Nc1c(F)cccc1F)C(=O)C1CC(=O)N(CCc2ccccc2)C1", "note": "(configuration not stated)", "inhibition": "inactive: 5.22%"},
      {"smiles": "O=C(Nc1cccc(C(F)(F)F)c1)c1cccnc1N1CCOCC1", "inhibition": "inconclusive: 59.3%"},
      {"smiles": "Cc1cc(C)cc(NC(=O)CSCc2cnn(-c3ccccc3)c2-n2cccc2)c1", "inhibition": "inactive: -0.62%"},
      {"smiles": "Cc1ccc(/C=C2\\SC(N3CCN(C(c4ccccc4)c4ccccc4)CC3)=NC2=O)o1", "inhibition": "inconclusive: 35.3%"},
      {"smiles": "COC(=O)c1cc(C(=O)Nc2ccc(S(N)(=O)=O)cc2)cc([N+](=O)[O-])c1", "inhibition": "inconclusive: 40.6%"},
      {"smiles": "CCOc1ccc(C(=O)OCC(=O)NCc2ccco2)cc1OCC", "inhibition": "inconclusive: 37.4%"},
      {"smiles": "CCOC(=O)c1[nH]c(C)c(C(=O)Nc2ccc(C)cc2C)c1C", "inhibition": "inconclusive: 48.2%"},
      {"smiles": "CC(=O)NS(=O)(=O)c1ccc(NC(=O)CN2C(=O)C3C4C=CC(C4)C3C2=O)cc1", "note": "(configuration not stated)", "inhibition": "inconclusive: 42.9%"},
      {"smiles": "O=C1OCCC1Sc1nc2cc(Cl)ccc2s1", "note": "(configuration not stated)", "inhibition": "inconclusive: 35.9%"},
      {"smiles": "O=C(O)Cc1ccc(NC(=O)c2cccs2)cc1", "inhibition": "inconclusive: 43.4%"},
      {"smiles": "O=S(=O)(Nc1cccc(-n2cnnn2)c1)c1ccccc1F", "inhibition": "inactive: -7.41%"},
      {"smiles": "CC1CN(S(=O)(=O)c2ccccc2)CC(C)O1", "note": "(configuration not stated)", "inhibition": "inconclusive: 33.2%"},
      {"smiles": "NC(=S)Nc1cccc(Cl)c1", "inhibition": "inconclusive: 35.8%"},
      {"smiles": "COc1ccc(-c2noc(=O)n2CC(=O)N2CCC(Cc3ccccc3)CC2)cc1", "inhibition": "inconclusive: 57.6%"},
      {"smiles": "Cc1ccccc1N=C1NC(=O)CS1", "inhibition": "inactive: -1.84%"},
      {"smiles": "CCn1nc(C)c(/C=N/NC(=O)Cn2nccc2C)c1C", "inhibition": "inconclusive: 36.3%"},
      {"smiles": "O=C(Cn1ncc2c3ccccc3n(Cc3ccc(F)cc3)c2c1=O)N1CCN(c2ncccn2)CC1", "inhibition": "inconclusive: 59.3%"},
      {"smiles": "O=C(Nc1ccc(-c2ccccc2)cc1)c1ccco1", "inhibition": "inconclusive: 37.3%"},
      {"smiles": "Cc1cc(C)nc(N(C#N)CC(=O)c2ccccc2)n1", "inhibition": "inconclusive: 52.1%"},
      {"smiles": "CCOC(=O)c1cc(NC(=O)OC)c(C)nc1C", "inhibition": "inconclusive: 35.9%"},
      {"smiles": "CC(=O)N1CCc2c(sc(NC(=O)CCS(=O)(=O)c3ccccc3)c2C(N)=O)C1", "inhibition": "inconclusive: 64.3%"},
      {"smiles": "CN1CCc2c1nc1ccccc1c2N=C1CCCN1Cc1ccccc1", "inhibition": "inconclusive: 51.6%"},
      {"smiles": "CC1(c2ccc(Cl)cc2)NC(=S)N2C1NC(=S)N2c1ccccc1", "note": "(configuration not stated)", "inhibition": "inconclusive: 39%"},
      {"smiles": "Cc1cc(C=O)c(C)n1-c1ccc(N2CCCC2)c([N+](=O)[O-])c1", "inhibition": "inconclusive: 25.4%"},
      {"smiles": "O=c1c2ccccc2nc(COc2ccccc2)n1/N=C/c1cc([N+](=O)[O-])ccc1O", "inhibition": "inconclusive: 40.9%"},
      {"smiles": "O=C(Nc1ccccc1F)c1ccncc1", "inhibition": "inconclusive: 49.5%"},
      {"smiles": "Cc1ccc(-c2nnn(CC(=O)N3CCCCC3)n2)c(-n2cnnn2)c1", "inhibition": "inconclusive: 52.4%"},
      {"smiles": "CCOC(=O)c1[nH]c2ccc(OCC)cc2c1NC(=O)CN1CCN(c2ccccn2)CC1", "inhibition": "inconclusive: 46.5%"},
      {"smiles": "CCSc1nnc(NC(=O)CSc2nc3c(c(=O)n2-c2ccccc2)SCC3)s1", "inhibition": "inconclusive: 56.3%"},
      {"smiles": "CC(=O)n1c2ccccc2c2c1c1ccccc1n2C", "inhibition": "inactive: -6.7%"},
      {"smiles": "O=C(CSc1nc2nn(-c3ccccc3)c(=O)c-2c2n1CCCCC2)c1ccc(O)c(O)c1", "inhibition": "inconclusive: 38.4%"},
      {"smiles": "Cc1nn(C)c(C)c1CN(C)C(=O)c1cc2nc(-c3ccco3)cc(C(F)(F)F)n2n1", "inhibition": "inconclusive: 56%"},
      {"smiles": "COc1cc(N)ccc1C(=O)O", "inhibition": "inconclusive: 36.8%"},
      {"smiles": "CCOC(=O)N1CCN(C(=O)Nc2ccc3nc(C)c(C)nc3c2)CC1", "inhibition": "inconclusive: 34.2%"},
      {"smiles": "C/C=C(\\C)C(=O)Nc1cccc(C2=NOC3(C2)C[C@H](C(N)=O)N(C(=O)c2cc([N+](=O)[O-])cc([N+](=O)[O-])c2)C3)c1", "note": "(some centres not stated)", "inhibition": "inactive: 9.79%"},
      {"smiles": "Cc1nc2sc(C(c3ccccc3)N3CCN(C(=O)c4ccco4)CC3)c(O)n2n1", "note": "(configuration not stated)", "inhibition": "inconclusive: 33.5%"},
      {"smiles": "CCOC(=O)c1c(NC(C)=O)no[n+]1[O-]", "inhibition": "inconclusive: 37.4%"},
      {"smiles": "O=C1CCCC(O)=C1N=Nc1ccc2c(c1)OCO2", "inhibition": "inconclusive: 34.9%"}
    ]}
  ]
}
